# At least one structure is not confirmed: it was looked up by name or label, or the drawing left a doubt.
# Test system: SCT-1 cells
# Assay: Growth of SCT-1 cells with ascorbate or suspended in Type I collagen
# Format: cell-based, mouse
# Conditions: tissue culture plastic, 50 μg/ml ascorbate
compound,measurement,value
O=C1O[C@H]([C@@H](O)CO)C(O)=C1O [ascorbate],growth,slower growth

# Source: patent US6392118B1, “Mx-1 conditionally immortalized cells” (Neurotech S.A., priority 1994, dated 2002)
